Experimental data taken from US10285938B2 (ISSAR Pharmaceutical, priority 2015, dated 2019).
Part of at least one peptide drawing is inferred or uncertain, most often the ends. No end group written: not given here.

Experiments:
[1] = subacute toxicity study in rats; format: in vivo; settings: dermal histopathology findings, unpublished observations
[2] = test system: bacterial growth in eschar and sub-eschar muscles; assay: microbiological study in rat burn wound model; format: in vivo; settings: post burn day one, two or three, vs control

Sequence: FAKKFAKKFAKFAKKFAKFAFAF [XYLENTRA®]
- action on tissue growth (collagen content in granulation tissue, re-epithelialization) [1]: stimulatory action on tissue growth
- microbial population level in eschar and sub-eschar muscles [2]: substantial decrease
